Measurements reported in US20150164762A1, “USE OF ETHANOLAMINE PHOSPHATE” (priority 2012, published 2015).
At least one structure is not confirmed: it was looked up by name or label, or the drawing left a doubt.

Columns and labels:
BEAS-2B [1] = assay: Transepithelial electrical resistance (TER), BEAS-2B; format: cell-based, human; conditions: Dex 1 μM, with or without EP 1 mM
Method: Cells of the established normal human airway epithelial cell line BEAS-2B were seeded to 1×10^5 cells/cm^2 on a cell culture insert (353104, BD Falcon) (FIG. 14). 10% FBS RPMI-1640 was used as the medium. The amount of medium was 200 μl on the insert side and 750 μl on the well side. Beginning the next day, substitution/medium replacement was performed once a day with 1% FBS RPMI-1640 prepared with the following 4 reagent conditions, and transepithelial electrical resistance (TER) was measured with MilliCell (Millipore). • Condition 1: Control • Condition 2: EP 1 mM • Condition 3: Dexamethasone 1 μM (dexamethasone (Dex): positive control substance known to enhance barrier function) • Condition 4: EP 1 mM and Dex 1 μM

HHDPC cells = assay: WST-8 proliferation test, primary normal human hair dermal papilla cells (HHDPC); conditions: 6 days
Method: HHDPC cells (Cosmo Bio) were seeded to 1×10^4 cells/cm^2 on a 96-well plate. Complete MSCM medium (500, ScienCell) was used as the medium. After 24 hours, the cells were washed gently with 200 μl per well of PBS, the medium was replaced with 90 μl per well of 0% FBS DMEM with 1 vol % of complete MSCM medium added thereto, and the cells were cultured for 24 hours. After culture, 10 μl per well of EP solution was added, and a proliferation test (WST-8 assay) was performed 6 days after EP administration. The WST-8 assay was performed as in Example 1. The same test was performed using minoxidil, which has a clinical hair growth effect.

BEAS-2B [2] = assay: Comprehensive gene expression analysis with Whole Human Genome DNA microarray after EP treatment; format: cell-based; conditions: probe A—23_P120883; 1 mM EP, 24 h
Method: Cells of the established normal human airway epithelial cell line BEAS-2B were used in the experiment. These cells were expansively cultured in 10% FBS RPMI-1640, and seeded at a density of 1×10^5/cm^2 on a 24-well plate. After 24 hours 0.1% FBS RPMI-1640 was substituted, and EP was administered to a final concentration of 0 or 1 mM (n=4). After 24 hours, the cells were used as the DNA microarray samples. RNA was extracted using a QIAGEN RNeasy Mini Kit. The DNA microarray test was performed using a Whole Human Genome DNA microarray 4×44K (Agilent), and the necessary labeling reagents and the like for the DNA microarray test were all from Agilent. The DNA microarray test data were analyzed statistically with GeneSpring (Agilent) dedicated analysis software, and gene function analysis (Gene Ontology (GO) analysis) was performed based on differential expression. The purpose of the GO analysis is to determine stochastically the degree to which gene sets with statistically significant differential expression correspond to known functional classification gene sets. […] The p-value is calculated according to the following formula.

C[C@@H]1C[C@H]2[C@@H]3CCC4=CC(=O)C=C[C@]4(C)[C@@]3(F)[C@@H](O)C[C@]2(C)[C@@]1(O)C(=O)CO [dexamethasone, reference compound]
rise in TER (BEAS-2B [1]): no rise in TER or drop in Papp

Nc1cc(N2CCCCC2)nc(N)[n+]1[O-] [Minoxidil, minoxidil, reference compound]
effective concentration range for proliferative effect (HHDPC cells): tens of nM to 400 nM

NCCOP(=O)(O)O [EP, Ethanolamine phosphate]
heme oxygenase-1 (HMOX1) expression decrease (BEAS-2B [2]): 1/2.3 fold
